Values from PubChem BioAssay AID504786 (Drosophila RNAi Screening Center, 2011).

Test: 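Positive regulators of HIF-driven reporter output in Drosophila cells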 (primary screen)
System: Drosophila S2 cells with a stable HIF luciferase reporter
Knock-down reagent: long dsRNA against Drosophila genes, about 0.2 µg dsRNA per well of a 384-well plate
Time to read-out: three days of knock-down, then 20 h of DFO before reading
Treatment: desferrioxamine (DFO) at 100 µM, an iron chelator that mimics hypoxia, for 20 h
Detection: 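HIF reporter luminescence in cells given 100 µM DFO for 20 h, using the mouse ldh-a hypoxia-response element, scored as per-plate z-scores; higher means greater loss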
Reading the numbers: z-score: higher = stronger loss of HIF reporter signal
The screen tested about 21,000 reagents; shown is an unselected part of those that have a named target and a result. 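Primary screen; positive scores mean lost reporter signal, so the sign may be inverted from the usual convention.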 Reagents against one gene are numbered here. Names joined by + are all predicted targets of the reagent. Not all columns of the deposit are shown.

predicted target	reagent	z-score, replicate 1	z-score, replicate 2
CG10802	1	-0.2	-0.2
ssp5	1	-0.3	-0.8
kin17	1	-0.2	0.2
Tsen2	1	-0.5	-0.1
TyrRS	1	-0.2	-0.3
CG15221	1	-0.3	-0.5
CG9570	1	-0.5	-0.9
mmd	1	0	0
mmd	2	-0.1	-0.5
mmd	3	-0.3	0.4
CG42518 + MED9	1	-0.2	-0.3
CG31792	1	-0.3	-0.1
CG17191	1	-0.1	-0.4
AlaRS-m	1	-0.1	-0.1
CG14445	1	-0.2	-0.7
Pop1	1	-0.1	-0.1
dec	1	-0.2	0.2
fd3F + CG42499 (retired record)	1	-0.4	-0.1
fd3F + CG42499 (retired record)	2	-0.4	0.2
Tom7	1	-0.2	0
Tom7	2	-0.3	-0.2
MED16	1	0.7	0.5
CG11634	1	-0.2	-0.5
rgn	1	0	-0.3
sl	1	-0.3	-0.1
TwdlW	1	0.3	-0.4
alt	1	-0.3	-0.7
Fbl6	1	-0.4	-0.6
Tango10	1	0.1	0.2
babo	1	-0.3	-0.1
Prp19	1	1.2	2.5
side-IV + CG17025 (retired record)	1	-0.3	-0.1
CG5539	1	-0.3	-0.5
CG12590	1	-0.4	-0.3
CG9346	1	0.9	1.1
CG17931 + CG42446	1	-0.3	-0.3
UGP	1	-0.1	-0.2
sno	1	-0.4	-0.9
ana3	1	0	0
Cul4	1	1	1.3
CG13577	1	-0.2	-0.5
CG31855	1	-0.2	-0.1
Prosalpha7	1	5.8	5.3
CG4297	1	0.2	-0.3
Rdh1	1	-0.1	-0.1
Sf3b5	1	8	5.8
Scr	1	4.8	2
Vrp1	1	-0.2	0
CG13716	1	-0.4	-1
IRSp53	1	-0.2	-0.1
CG4950	1	-0.3	-0.5
CG34435	1	-0.2	-0.6
Fbxl4	1	-0.3	-0.3
spri	1	-0.1	-0.7
spri	2	-0.3	-0.9
spri	3	-0.1	-0.5
spri	4	-0.3	-0.5
spri	5	-0.2	-0.5
spri	6	-0.3	-0.2
CG13653	1	-0.2	-0.3
CG14294	1	-0.5	-0.1
CG13058	1	-0.3	-0.5
CNMa	1	0	-0.2
CG9826	1	-0.4	-0.3
CG7560	1	-0.2	-0.2
CG42346	1	-0.1	0.1
CG42346	2	0.4	0.6
CG8237	1	-0.4	-0.5
CG14857	1	-0.3	0.6
Akap200	1	-0.1	0
Vps53	1	-0.3	-0.3
alphaSnap	1	-0.4	0.5
CG3515	1	-0.4	-0.2
CG31974	1	-0.2	-0.2
CG6465	1	-0.4	-0.2
RhoGEF2	1	-0.3	-0.3
CG12065	1	-0.3	-0.5
CG12065	2	-0.3	-0.3
Mal-A8	1	-0.2	-0.1
CG10939	1	-0.3	-0.2
kdn	1	-0.1	-0.4
CG9068	1	-0.2	-0.5
asl	1	-0.4	-0.6

Sorted by “z-score, replicate 2” (highest first): 8 of the entries above
predicted target	reagent	z-score, replicate 1	z-score, replicate 2
Prp19	1	1.2	2.5
CG9346	1	0.9	1.1
Tango10	1	0.1	0.2
babo	1	-0.3	-0.1
side-IV + CG17025 (retired record)	1	-0.3	-0.1
CG12590	1	-0.4	-0.3
CG17931 + CG42446	1	-0.3	-0.3
CG5539	1	-0.3	-0.5
